Reference: patent US5773263A, “Production aflastatin A from streptomyces sp., a pharmaceutical composition and methods of use” (Morinaga & Co., Ltd., priority 1996, dated 1998)

System: peanut plants
Assay: Weight of sprayed peanut plants and of their grains
Format: in vivo, peanut (US-Florunner)
Details: for Weight of seven pieces of peanut grains: control 11.0; for Number of grains with shells: control 76; for Weight of grains with shells: control 213.7; for Weight of plants: control 485.1

## CCCCCCCCCC(O)C[C@]1(O)O[C@H](CC(O)C(O)C(O)C(O)C(O)CC(O)CC(O)CC(O)C(C)C(O)C(C)C(O)CC(O)C(C)C(O)C(C)C(O)C(C)C(O)C(O)CC(C)CC(C)/C=C(C)/C(O)=C2/C(=O)C(C)N(C)C2=O)[C@@H](O)[C@H](O)[C@@H]1O (some centres unmarked) [aflastatin A]
Aflastatin A 2 mg/individual
  Weight of seven pieces of peanut grains: 11.6 g
  Number of grains with shells: 60 number
  Weight of grains with shells: 167.4 g
  Weight of plants: 413.5 g
Aflastatin A 10 mg/individual
  Weight of seven pieces of peanut grains: 11.5 g
  Number of grains with shells: 66 number
  Weight of grains with shells: 192.8 g
  Weight of plants: 432.1 g
